Literature values, collected in patent US20240307350A1, “5-METHOXY-N,N-DIMETHYLTRYPTAMINE (5-MEO-DMT) FOR TREATING DEPRESSION” (GH RESEARCH IRELAND LIMITED, priority 2019, published 2024).
At least one compound was matched to its structure with a doubt left.

System: patients with treatment-resistant depression
Conditions: cited from earlier work

CN(C)CCc1c[nH]c2cccc(OP(=O)(O)O)c12 [psilocybin]
responders relapsed (until month 6, of the 9 responders): 3 | patients with a response (week 5, low dose and high dose seven days apart, 20 patients): 9 of 20
